Assay results reported in doi:10.1101/2021.08.27.457910.
These are yes or no findings as the source states them, for the method shown. For some assays here: Binding can be weak; no strength is given. Blank lines part the entries; values can stand above or below the binder they belong to.

Tests used:
[1] = molecular target: Sgo1_(1-130)-LacI-GFP (human); assay: LacO-LacI tethering assay
[2] = molecular target: Sgo1_(159-240 4A)-LacI-GFP (human); assay: LacO-LacI tethering assay
[3] = molecular target: Sgo1_(1-527)-LacI-GFP (human); assay: LacO-LacI tethering assay
[4] = molecular target: Sgo1_(274-415)-LacI-GFP (human); assay: LacO-LacI tethering assay
[5] = molecular target: Sgo1_(415-527)-LacI-GFP (human); assay: LacO-LacI tethering assay
[6] = molecular target: Sgo1_(1-527 4A)-LacI-GFP (human); assay: LacO-LacI tethering assay
[7] = molecular target: Sgo1_(130-280 4A)-LacI-GFP (human); assay: LacO-LacI tethering assay
[8] = molecular target: Sgo1_(130-280)-LacI-GFP (human); assay: LacO-LacI tethering assay
[9] = molecular target: Sgo1_(1-527 Nmut)-LacI-GFP (human); assay: LacO-LacI tethering assay
[10] = molecular target: Sgo1_(159-240)-LacI-GFP (human); assay: LacO-LacI tethering assay
[11] = molecular target: Sgo1_(1-415) (human); assay: cross-linking

binding [1]: binds
binding [2]: no binding
binding [3]: binds
binding [4]: no binding
binding [5]: no binding
binding [6]: binds
binding [7]: no binding
binding [8]: binds
binding [9]: binds
binding [10]: binds
B1: Borealin (endogenous) (protein, UniProt Q53HL2 1-280)
chain: MAPRKGSSRVAKTNSLRRRKLASFLKDFDREVEIRIKQIESDRQNLLKEVDNLYNIEILRLPKALREMNWLDYFALGGNKQALEEAATADLDITEINKLTAEAIQTPLKSAKTRKVIQVDEMIVEEEEEEENERKNLQTARVKRCPPSKKRTQSIQGKGKGKRSSRANTVTPAVGRLEVSMVKPTPGLTPRFDSRVFKTPGLRTPAAGERIYNISGNGSPLADSKEIFLTVPVGGGESLRLLASDLQRHSIAQLDPEALGNIKKLSNRLAQICSSIRTHK

binding [11]: binds
B2: Borealin_(10-280) (subunit of CPC_(ISB10-280)) (domain or fragment, UniProt Q53HL2 10-280)
chain: VAKTNSLRRRKLASFLKDFDREVEIRIKQIESDRQNLLKEVDNLYNIEILRLPKALREMNWLDYFALGGNKQALEEAATADLDITEINKLTAEAIQTPLKSAKTRKVIQVDEMIVEEEEEEENERKNLQTARVKRCPPSKKRTQSIQGKGKGKRSSRANTVTPAVGRLEVSMVKPTPGLTPRFDSRVFKTPGLRTPAAGERIYNISGNGSPLADSKEIFLTVPVGGGESLRLLASDLQRHSIAQLDPEALGNIKKLSNRLAQICSSIRTHK
